We go through two molecules from article PMC9266971.

Chains of the proteins cited; added tags and fusions are not shown. Lines headed by an entry give the natural chain unless they say otherwise; changes in a name come on top. A line that says so, or that is headed by a name, gives the form on record, which may keep a tag or linker.
Sarcoplasmic reticulum calcium ATPase (SERCA2a), mouse heart (mouse (endogenous in mouse heart)) (O55143, form named): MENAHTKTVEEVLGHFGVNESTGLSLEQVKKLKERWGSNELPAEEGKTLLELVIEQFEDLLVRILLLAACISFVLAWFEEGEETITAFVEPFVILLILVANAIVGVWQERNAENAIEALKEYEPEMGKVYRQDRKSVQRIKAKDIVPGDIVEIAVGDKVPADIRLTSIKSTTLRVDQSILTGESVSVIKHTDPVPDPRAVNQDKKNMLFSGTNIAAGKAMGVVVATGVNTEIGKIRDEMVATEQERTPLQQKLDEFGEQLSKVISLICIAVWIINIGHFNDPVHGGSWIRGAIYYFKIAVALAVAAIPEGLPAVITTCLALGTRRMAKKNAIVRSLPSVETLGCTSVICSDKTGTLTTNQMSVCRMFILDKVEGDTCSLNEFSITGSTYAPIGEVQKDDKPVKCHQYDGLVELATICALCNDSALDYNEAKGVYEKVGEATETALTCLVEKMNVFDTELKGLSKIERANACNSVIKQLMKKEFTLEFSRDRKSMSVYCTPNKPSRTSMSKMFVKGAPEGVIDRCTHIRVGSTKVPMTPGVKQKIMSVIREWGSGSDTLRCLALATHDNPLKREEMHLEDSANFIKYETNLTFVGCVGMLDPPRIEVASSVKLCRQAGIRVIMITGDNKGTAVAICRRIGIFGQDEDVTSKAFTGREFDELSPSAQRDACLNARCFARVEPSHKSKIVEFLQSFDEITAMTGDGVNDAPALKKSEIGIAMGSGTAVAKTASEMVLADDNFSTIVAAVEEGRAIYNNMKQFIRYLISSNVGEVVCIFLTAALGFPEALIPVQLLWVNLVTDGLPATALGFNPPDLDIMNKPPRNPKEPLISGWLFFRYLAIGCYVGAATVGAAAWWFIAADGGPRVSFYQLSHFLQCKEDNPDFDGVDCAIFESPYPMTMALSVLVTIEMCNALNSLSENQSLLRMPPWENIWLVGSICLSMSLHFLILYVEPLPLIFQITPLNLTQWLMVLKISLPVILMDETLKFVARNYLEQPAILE

Results are given in words; binding and its absence hold for the method and conditions named. In cells and extracts the contact can be indirect. Some entries that bind do so weakly or less than the wild type.

For test [1], the target named is GST-PLN-WT recombinant protein (UniProt P26678). In words: pull-down; equivalent amounts of GST-PLN-WT or GST-PLN-R14del on glutathione beads mixed with 0.5 mg wild-type mouse cardiac homogenate (10 mM NaPO4 pH 7.2, 2 mM EDTA, 10 mM NaN3, 120 mM NaCl, 1% NP-40), 4 °C, 16 h; Western blot; for Figure 3c the GST proteins were first treated with PKA; only the target purified. A general note: In western blotting, separated proteins are transferred to a membrane and probed.

Test [2] addresses GST-PLN-R14del recombinant protein (UniProt P26678). Described as above.
Test [3] concerns the target Sarcoplasmic reticulum calcium ATPase (SERCA2a), mouse heart (mouse (endogenous in mouse heart)) (UniProt O55143). In words: co-IP; SERCA2 antibody and protein G PLUS agarose on cardiac homogenates (1 g/L) of PLN-WT or humanized PLN-R14del mice, 4 °C, 16 h; Western blot for PLN and HAX-1.

B1: GM, muscle-specific glycogen-targeting subunit of PP1, mouse heart (protein, UniProt Q99MR9 1-1089)
chain: MEPAEEPGQISKDNFLEVPNLSDSVCEDEEVKATFKPGFSPQPSRRGSGSSEDMYLDTPTSASRRVSFADSLGFSLVSVKEFDCWELPSVSTDFDLSGDVFHTDEYVLSPLFDLPSSKEKLMEQLQVQKAVLESAEHLPGSSMKGIIRVLNISFEKLVYVRMSLDDWQTHYDILAEYVPNSCDGETDQFSFKISLVPPYQKEGGKVEFCIRYETSAGTFWSNNNGTNYILVCQKKRKEPEPVKPLEEAPSRQIKGCLKVKSRSKEEPLLAPEENKFETLKFTESYIPTIICSHEDKDDLGANHPNVDDINKKHDEHNGKELDLMINQRLITSQDEKNTFATDTVNFTNKAEGSEKKQAYHEINTDLFMGPLSPSLSAESSLKRDFYHSRSSSPGNEYGHPHSEEIISDMGEKGPSLGDTSSDELMQLELCSKEDLDDNANPANGSGRVCSSFDQRMACGLKNNEAGIKKTGIQDYKYSHGDSTKLEESNASSRDDYAKVDNKKEKQTCLGVNENPSKNFQSVFQTQEGHMGYPKISTEGDKANNQDLTSLLSKDITANTWAVTVDPCPSTNAKRSWREVGSGSNLEPGTSDLSSPRNFSPLTDDHLFQADRENSDSSNPENQNMNTRHRKKWNVLETQSETSETESDIAKHTKEQAEYKDMWEKTDNSRNLKATPTEHLFTCRETECYGLSSLADHGITEKAQAVTAYIIKTTLESTPESASARGKAIIAKLPQETAGNDRPIEVKETAFDPHEGRKDDSHYSLCHGDTAGVIHDNDFERESHLDICNLRVDEMKKEKTTSTCFPQKTYDKEKHGIGSVTSIDEPSQVITGNQKATSKLDLHLGVLPTDRAIFQANADLELLQELSRRTDFNAVPSAFNSDTASASRDSSQVYRHCSKKSVPSYGEEKAVTNTTLQSIPTKSEYNWHPESEVLGHAMSKPEDVFKSSEIMKSGSGGERGGGPILQQKEGSLENSQGPMFFTNEPLENLDEASSENEGLMHSGQSQCYLGDKGLVSSASATVSTQELEAQGRESLLSISTNSKIPYFLLFLIFLATVYYYDLMIGLAFYLFSLYWLYWEGGRQRESVKKK
On to B1, for which the binding entry in test [1] and in test [2] was “binds” in each case.

B2: PLN in hearts of WT (PLN-WT) mice (protein, UniProt P61014 1-52)
chain: MEKVQYLTRSAIRRASTIEMPQQARQNLQNLFINFCLILICLLLICIIVMLL
Turning to B2, the binding result in test [3] is “binds”.
